Measured values: paper PMC6488192 (2019)
No constants are given. Whether binding was seen depends on the method and setting. Binding seen in cells or lysates may run through a third protein. Binding can be weak; no strength is given.

Chains of the proteins cited; added tags and fusions are not shown. Residues count along the entry.
UniProt Q581T1, residues 31-2167: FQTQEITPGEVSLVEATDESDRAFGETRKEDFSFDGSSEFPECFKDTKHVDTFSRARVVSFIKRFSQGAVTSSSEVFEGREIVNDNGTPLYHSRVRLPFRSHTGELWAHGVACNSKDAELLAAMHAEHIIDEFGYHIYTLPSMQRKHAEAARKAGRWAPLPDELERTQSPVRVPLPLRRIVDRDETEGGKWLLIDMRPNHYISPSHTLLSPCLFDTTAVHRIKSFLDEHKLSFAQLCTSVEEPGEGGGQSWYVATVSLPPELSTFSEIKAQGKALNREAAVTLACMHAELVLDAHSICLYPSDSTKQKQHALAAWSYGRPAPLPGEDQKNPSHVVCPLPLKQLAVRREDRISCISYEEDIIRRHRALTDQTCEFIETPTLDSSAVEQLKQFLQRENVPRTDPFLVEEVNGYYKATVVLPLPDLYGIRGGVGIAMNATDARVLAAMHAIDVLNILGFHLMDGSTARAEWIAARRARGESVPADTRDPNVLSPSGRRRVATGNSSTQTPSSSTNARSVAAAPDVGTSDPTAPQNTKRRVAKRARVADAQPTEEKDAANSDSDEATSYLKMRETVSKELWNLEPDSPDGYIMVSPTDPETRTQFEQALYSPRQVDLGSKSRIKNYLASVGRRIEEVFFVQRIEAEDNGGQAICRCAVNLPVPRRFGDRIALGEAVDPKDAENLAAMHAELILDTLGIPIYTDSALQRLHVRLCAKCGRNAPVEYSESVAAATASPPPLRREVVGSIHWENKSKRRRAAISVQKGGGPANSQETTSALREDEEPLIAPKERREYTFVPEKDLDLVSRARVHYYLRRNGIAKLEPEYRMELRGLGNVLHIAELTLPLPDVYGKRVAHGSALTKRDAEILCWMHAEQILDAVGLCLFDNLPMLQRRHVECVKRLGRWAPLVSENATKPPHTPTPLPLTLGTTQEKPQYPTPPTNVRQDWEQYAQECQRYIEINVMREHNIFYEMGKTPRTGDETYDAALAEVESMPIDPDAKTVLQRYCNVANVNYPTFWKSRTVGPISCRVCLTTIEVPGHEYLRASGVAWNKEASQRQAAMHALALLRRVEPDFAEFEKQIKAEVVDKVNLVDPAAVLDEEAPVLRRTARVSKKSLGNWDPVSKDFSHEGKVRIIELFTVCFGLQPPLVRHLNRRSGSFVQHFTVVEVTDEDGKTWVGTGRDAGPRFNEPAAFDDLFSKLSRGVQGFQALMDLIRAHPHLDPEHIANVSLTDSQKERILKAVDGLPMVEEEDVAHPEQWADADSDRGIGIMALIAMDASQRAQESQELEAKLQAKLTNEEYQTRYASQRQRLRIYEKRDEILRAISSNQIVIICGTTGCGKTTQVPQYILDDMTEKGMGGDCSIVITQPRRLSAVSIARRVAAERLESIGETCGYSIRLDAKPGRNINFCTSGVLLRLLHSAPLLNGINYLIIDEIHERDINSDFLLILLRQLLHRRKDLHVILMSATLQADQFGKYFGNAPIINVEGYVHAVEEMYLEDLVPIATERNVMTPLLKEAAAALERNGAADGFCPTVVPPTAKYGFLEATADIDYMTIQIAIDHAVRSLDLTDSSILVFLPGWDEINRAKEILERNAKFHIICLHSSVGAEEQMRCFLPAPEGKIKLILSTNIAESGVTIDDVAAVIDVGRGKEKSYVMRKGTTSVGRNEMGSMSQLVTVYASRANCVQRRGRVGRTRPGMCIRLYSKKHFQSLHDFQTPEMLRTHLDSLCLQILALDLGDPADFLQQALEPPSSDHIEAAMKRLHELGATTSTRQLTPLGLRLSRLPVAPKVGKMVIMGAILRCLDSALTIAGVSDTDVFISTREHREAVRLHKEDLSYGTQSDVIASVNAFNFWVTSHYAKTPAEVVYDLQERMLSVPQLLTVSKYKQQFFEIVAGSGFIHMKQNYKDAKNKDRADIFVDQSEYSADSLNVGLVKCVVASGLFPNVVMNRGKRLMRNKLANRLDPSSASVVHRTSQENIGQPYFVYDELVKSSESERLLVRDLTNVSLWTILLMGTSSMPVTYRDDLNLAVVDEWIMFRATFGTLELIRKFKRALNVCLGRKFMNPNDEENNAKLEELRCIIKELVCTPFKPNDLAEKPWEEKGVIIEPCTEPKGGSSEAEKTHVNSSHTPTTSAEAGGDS

Key:
Assay in all cases: pull-down; TAP-tagged bait recovered on Dynabeads IgG from whole-cell or mitochondria-enriched T. brucei extract (~2 mg protein, with RNase inhibitor); washes 150 mM NaCl, 1 mM EDTA, 10 mM MgOAc, 0.1% NP-40, 25 mM Tris pH 8.0; endogenous partners by Western blot, REL1 by radiolabelled self-adenylation; mutants normalised to WT
[1] = target: ^H2F1 Znf1 R/K>A with TAP tag (T. brucei) (UniProt Q585P3)
[2] = target: ^H2F1 Znf2 R/K>A with TAP tag (T. brucei) (UniProt Q585P3)
[3] = target: ^H2F1 Znf3 R/K>A with TAP tag (T. brucei) (UniProt Q585P3)
[4] = target: ^H2F1 Znf4 R/K>A with TAP tag (T. brucei) (UniProt Q585P3)
[5] = target: ^H2F1 Znf5 C2>A2 with TAP tag (T. brucei) (UniProt Q585P3)
[6] = target: ^H2F1 Znf5 R/K>A with TAP tag (T. brucei) (UniProt Q585P3)

Measured: binding

RNA Editing Helicase 2 (REH2), endogenous (from UniProt Q581T1 31-2167) (enzyme)
binds: all assays above
